## Library screen at single concentrations

By UniProt entry, the sequences of proteins in these tests, tags left out. Residues count along the entry.
UniProt P9WPC5, whole entry: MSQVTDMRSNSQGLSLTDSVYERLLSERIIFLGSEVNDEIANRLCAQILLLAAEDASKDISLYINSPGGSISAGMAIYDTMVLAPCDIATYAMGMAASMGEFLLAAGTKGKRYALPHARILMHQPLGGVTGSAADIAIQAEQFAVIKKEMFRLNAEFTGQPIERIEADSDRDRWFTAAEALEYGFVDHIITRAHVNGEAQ
UniProt P9WPC3, whole entry partner: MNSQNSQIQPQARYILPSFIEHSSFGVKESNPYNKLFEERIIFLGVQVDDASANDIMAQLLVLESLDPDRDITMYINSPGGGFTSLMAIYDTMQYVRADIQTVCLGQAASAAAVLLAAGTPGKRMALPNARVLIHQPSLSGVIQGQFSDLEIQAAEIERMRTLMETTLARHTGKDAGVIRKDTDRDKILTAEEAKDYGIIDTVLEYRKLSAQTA
UniProt Q4DA54, 1-478: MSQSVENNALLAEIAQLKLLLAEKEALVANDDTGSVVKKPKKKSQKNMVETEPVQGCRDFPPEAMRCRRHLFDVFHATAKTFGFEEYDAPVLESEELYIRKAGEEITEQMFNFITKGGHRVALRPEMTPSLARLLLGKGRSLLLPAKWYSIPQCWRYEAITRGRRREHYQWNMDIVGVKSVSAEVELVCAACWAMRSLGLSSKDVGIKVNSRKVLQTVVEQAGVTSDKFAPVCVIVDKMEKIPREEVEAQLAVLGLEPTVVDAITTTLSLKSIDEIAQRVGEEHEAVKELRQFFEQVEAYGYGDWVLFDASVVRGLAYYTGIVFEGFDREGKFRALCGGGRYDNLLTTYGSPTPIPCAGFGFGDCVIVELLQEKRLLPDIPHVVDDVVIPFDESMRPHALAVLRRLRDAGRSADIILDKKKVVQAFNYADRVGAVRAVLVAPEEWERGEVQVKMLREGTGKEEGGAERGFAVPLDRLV
UniProt Q8IDJ8, 1-583: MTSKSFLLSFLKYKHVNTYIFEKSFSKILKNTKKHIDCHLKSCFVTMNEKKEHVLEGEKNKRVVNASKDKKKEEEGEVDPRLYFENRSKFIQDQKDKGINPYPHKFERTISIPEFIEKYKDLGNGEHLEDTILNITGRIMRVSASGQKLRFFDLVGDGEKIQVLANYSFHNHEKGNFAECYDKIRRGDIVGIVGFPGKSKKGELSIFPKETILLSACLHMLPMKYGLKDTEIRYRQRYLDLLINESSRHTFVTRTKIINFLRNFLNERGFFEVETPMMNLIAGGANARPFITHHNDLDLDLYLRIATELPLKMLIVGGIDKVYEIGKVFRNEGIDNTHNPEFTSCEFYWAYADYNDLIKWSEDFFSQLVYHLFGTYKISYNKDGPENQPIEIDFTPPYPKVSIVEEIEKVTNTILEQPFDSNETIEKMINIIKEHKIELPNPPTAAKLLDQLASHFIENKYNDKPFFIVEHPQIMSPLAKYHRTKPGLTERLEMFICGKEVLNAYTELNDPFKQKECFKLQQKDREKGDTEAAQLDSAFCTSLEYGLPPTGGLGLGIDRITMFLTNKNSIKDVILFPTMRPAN
UniProt P9WNZ1, whole entry: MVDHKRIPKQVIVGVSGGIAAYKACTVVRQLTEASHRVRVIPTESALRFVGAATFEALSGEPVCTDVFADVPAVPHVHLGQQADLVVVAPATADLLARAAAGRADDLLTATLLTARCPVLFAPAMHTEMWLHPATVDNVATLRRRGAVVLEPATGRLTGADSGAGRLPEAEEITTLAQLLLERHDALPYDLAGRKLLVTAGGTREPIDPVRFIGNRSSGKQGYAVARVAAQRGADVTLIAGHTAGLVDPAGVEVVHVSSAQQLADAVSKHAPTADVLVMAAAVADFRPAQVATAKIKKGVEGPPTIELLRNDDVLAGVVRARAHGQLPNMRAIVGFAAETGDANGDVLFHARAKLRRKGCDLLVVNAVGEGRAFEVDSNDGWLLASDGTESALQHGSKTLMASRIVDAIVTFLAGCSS
UniProt I6X8D2, whole entry: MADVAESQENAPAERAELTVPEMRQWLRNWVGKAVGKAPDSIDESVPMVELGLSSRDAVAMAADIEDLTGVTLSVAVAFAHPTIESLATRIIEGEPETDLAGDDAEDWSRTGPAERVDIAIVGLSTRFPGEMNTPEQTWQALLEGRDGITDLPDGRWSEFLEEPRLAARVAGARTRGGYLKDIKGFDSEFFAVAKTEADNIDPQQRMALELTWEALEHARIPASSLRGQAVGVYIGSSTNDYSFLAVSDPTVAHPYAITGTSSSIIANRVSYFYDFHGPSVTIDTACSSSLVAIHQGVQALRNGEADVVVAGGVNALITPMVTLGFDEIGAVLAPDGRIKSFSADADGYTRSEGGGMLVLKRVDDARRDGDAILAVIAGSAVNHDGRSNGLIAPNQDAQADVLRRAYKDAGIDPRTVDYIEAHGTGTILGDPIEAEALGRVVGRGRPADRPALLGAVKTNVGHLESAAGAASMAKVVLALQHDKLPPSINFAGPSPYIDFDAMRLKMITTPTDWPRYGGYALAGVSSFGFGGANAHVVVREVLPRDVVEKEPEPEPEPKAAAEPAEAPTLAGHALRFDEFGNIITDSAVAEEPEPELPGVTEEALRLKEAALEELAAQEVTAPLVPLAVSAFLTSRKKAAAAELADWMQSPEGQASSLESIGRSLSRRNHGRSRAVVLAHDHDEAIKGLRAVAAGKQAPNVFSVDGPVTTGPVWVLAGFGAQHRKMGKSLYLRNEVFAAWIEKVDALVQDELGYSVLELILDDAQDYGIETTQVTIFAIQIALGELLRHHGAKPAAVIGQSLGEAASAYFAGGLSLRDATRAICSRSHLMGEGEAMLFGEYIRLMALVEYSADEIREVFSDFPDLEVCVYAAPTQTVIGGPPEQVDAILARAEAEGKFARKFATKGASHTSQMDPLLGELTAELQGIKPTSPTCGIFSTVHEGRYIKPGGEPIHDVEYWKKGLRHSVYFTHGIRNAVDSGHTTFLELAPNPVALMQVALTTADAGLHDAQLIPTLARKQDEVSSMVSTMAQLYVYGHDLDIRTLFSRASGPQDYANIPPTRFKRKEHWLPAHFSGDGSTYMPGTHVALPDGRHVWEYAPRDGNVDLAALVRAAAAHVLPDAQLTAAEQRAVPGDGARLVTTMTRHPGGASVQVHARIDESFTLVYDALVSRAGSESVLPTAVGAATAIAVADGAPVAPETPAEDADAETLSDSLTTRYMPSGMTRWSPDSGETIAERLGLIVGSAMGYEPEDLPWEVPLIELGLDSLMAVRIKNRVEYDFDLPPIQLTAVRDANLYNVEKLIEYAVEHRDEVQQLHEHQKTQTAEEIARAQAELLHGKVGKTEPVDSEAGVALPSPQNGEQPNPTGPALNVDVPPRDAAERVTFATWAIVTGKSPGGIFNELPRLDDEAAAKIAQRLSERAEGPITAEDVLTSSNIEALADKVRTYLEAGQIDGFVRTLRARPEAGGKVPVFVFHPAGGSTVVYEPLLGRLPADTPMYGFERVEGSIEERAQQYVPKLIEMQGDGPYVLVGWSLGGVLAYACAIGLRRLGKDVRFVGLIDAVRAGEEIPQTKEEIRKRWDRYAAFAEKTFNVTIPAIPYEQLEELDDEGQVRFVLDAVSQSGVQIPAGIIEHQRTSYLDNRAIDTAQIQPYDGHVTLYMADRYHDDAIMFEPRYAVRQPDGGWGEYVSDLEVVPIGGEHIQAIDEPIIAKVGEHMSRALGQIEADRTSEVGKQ

A: 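Protease assay of ClpP1P2, read by the AMC dye that it sets free. Target: ClpP1P2, Mycobacterium tuberculosis (UniProt P9WPC5 and UniProt P9WPC3). Compounds at 50 µM. Higher reads as stronger inhibition, judged from the few compounds that gave an IC50. Most other retested compounds had strongly negative values. About 69,000 compounds were tested under these conditions; 0.015% (about 10) showed 50% or more at least once.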
B: 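Enzyme assay of histidyl-tRNA synthetase; the read-out is not stated. Target: Histidine-tRNA ligase, Trypanosoma cruzi CL Brener (UniProt Q4DA54). Compounds at 30 µM. Direction is inferred from retests: higher values go with stronger inhibition. Of about 69,000 compounds tested this way, about 31 (0.045%) reached 50% or more in at least one test.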
C: 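Enzyme assay of the cytosolic lysyl-tRNA synthetase in 384-well plates, read by luminescence. Target: Lysine-tRNA ligase, Plasmodium falciparum 3D7 (UniProt Q8IDJ8). Tested at 30 µM. Direction is inferred from only a few compounds that gave an IC50; most scored high, so higher reads as stronger inhibition. Of about 69,000 compounds tested this way, about 49 (0.071%) reached 50% or more in at least one test.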
D: 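Coenzyme A biosynthesis protein CoaBC, Mycobacterium tuberculosis (UniProt P9WNZ1). Enzyme assay of CoaBC with a phosphate dye (Biomol Green) read at 650 nm. Concentration: 30 µM. Higher reads as stronger inhibition, judged from the few compounds that gave an IC50. Most strong results did not repeat in a second test. About 67,000 compounds were tested under these conditions; 0.06% (about 40) showed 50% or more at least once.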
E: 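Cell assay of Leishmania donovani living inside macrophages; the read-out is not stated. Concentration: 30 µM. The record gives no direction; compounds that gave an IC50 in retests scored well above the rest, so higher reads as stronger inhibition. Size under these conditions: about 69,000 compounds, about 1,000 of them at 50% or above in at least one test.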
F: 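Polyketide synthase Pks13, Mycobacterium tuberculosis (UniProt I6X8D2). Enzyme assay of the thioesterase domain of polyketide synthase 13; the read-out is not stated. Compounds at 30 µM. The record gives no direction; the compounds picked for IC50 retests had high values, so higher reads as stronger inhibition. Size under these conditions: about 67,000 compounds, about 300 of them at 50% or above in at least one test.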

Results are given as percent effect.
The controls that fix the scale are not given in the record; negative values are as filed.
This is an unselected part of the compounds tested.
Two or more numbers in one place are separate tests of the same structure; such repeats can differ widely.
A dash means the value is not listed here; it may have been measured.

| # | compound | A | B | C | D | E | F |
|---|---|---|---|---|---|---|---|
| 1 | `Cc1nccc([C@H]2C[C@@H]3CCN(S(C)(=O)=O)C[C@H]3O2)n1` | -11.64% | 5.607% | -0.7871% | 4.198% | - | -16.36% |
| 2 | `CCNC(=O)NC(=O)CNc1cc(C(=O)OC)cc(C(F)(F)F)c1` | 1.1% | 8.108% | 6.713% | 9.545% | 26.34% | -11.55% |
| 3 | `CN(C)C(=O)c1cnc2n1CCN(Cc1ccsc1)C2.O=C(O)C(F)(F)F` | - | - | - | - | 24.8% | - |
| 4 | `CCN(c1ccc(C(=O)N2CCCC2c2cnn(C)c2)cn1)C(C)C` (centres undefined) | -25% | 2.312% | -1.29% | 3.704% | -10.57% | -19.35% |
| 5 | `CC(=O)N1N=C(c2ccncc2)OC1C(=O)N(C)CCc1ccccc1` (centres undefined) | -5.937% | 3.409% | 1.386% | -0.7282% | -12.84% | -5.47% |
| 6 | `CCCN(C)C(=O)Nc1ccc(C(=O)NCCC(=O)OC)cc1` | 2.724% | 2.128% | 2.584% | 12.36% | 34.65% | -35.69% |
| 7 | `CC(=O)N1CCC(c2nnc3ccc(C(=O)NCCN(C)C)cn23)C1` (centres undefined) | -5.428% | 4.124% | 6.289% | 5.665% | 16.04% | -12.12% |
| 8 | `CC(=O)NC1CCCN(Cc2ccn(C)c(=O)c2)C1` (centres undefined) | 6.399% | 2.053% | -1.452% | 8.947% | 4.15% | -32.8% |
| 9 | `CCC(C)N1CCC2(CC1)CN(c1cncnc1)C(=O)CO2` (centres undefined) | -12.31% | -13.41% | -0.5691% | 4.511% | - | -3.912% |
| 10 | `O=C(C1CCCOC1)N1CCc2ccc(F)cc21` (centres undefined) | -1.786% | 1.571% | 2.641% | -0.6424% | -7.418% | -4.164% |
| 11 | `O=C(O)C(F)(F)F.O=C(O)C(F)(F)F.[H][C@@]12CO[C@@H](CN(C)C)[C@]1([H])CCN(Cc1ccc(C)o1)C2` | - | - | - | - | 46.23% | - |
| 12 | `Cc1cccc2c1nc1n2[C@@H](CNC(=O)c2ccncc2)COC1` | 1.693% | 4.348% | 5.801% | 8.609% | 7.857% | -27.69% |
| 13 | `CC(C)n1ccnc1CN1CCCN(C(=O)c2ncccc2O)CC1` | -11.54% | 10.26% | 0.6224% | 6.053% | 36.99% | -20.5% |
| 14 | `CCN1CCOCC12CCN(c1nccs1)CC2` | 3.396% | 5.155% | 4.256% | 5.419% | - | -6.065% |
| 15 | `CNC(=O)C(CC(C)C)NC(=O)c1cccc(-c2nc(C)cs2)c1` (centres undefined) | -6.323% | 3.175% | 3.681% | 13.02% | -71.28% | -22.28% |
| 16 | `O=C(COCc1ccco1)Nc1cc(C(F)(F)F)c[nH]c1=O` | -10.91% | 0.578% | 0.5424% | 0.9126% | -7.339% | -7.778% |
| 17 | `O=C(CNC(=O)C1CCCC1)NCc1cnn(-c2ccc(F)cc2F)c1` | -10.47% | -3.158% | 1.691% | 4.781% | -11% | -5.67% |
| 18 | `CN(C)Cc1cc(=O)n2c(n1)CN(C(=O)c1ccc[nH]1)CCC2` | 12.22% | 6.533% | 1.122% | 0.8663% | - | -0.5889% |
| 19 | `[H][C@@]12CS(=O)(=O)C[C@]1([H])NCCN2c1ccnc(N(C)Cc2cccnc2)n1` | - | - | - | - | 6.042% | - |
| 20 | `COc1ccc(CN2CCc3nnc(COCCN(C)C)n3CC2)cc1` | -2.612% | 5.714% | -1.392% | -0.6165% | - | -10.22% |
| 21 | `Cc1ccc(NC2CCN(C(=O)C(C)n3cncn3)CC2)nn1` (centres undefined) | -1.293% | 2.326% | 5.495% | 3.289% | 15.83% | -3.43% |
| 22 | `CC(C)S(=O)(=O)N1CCC(c2[nH]ncc2S(C)(=O)=O)C1` (centres undefined) | -8.941% | 3.745% | 1.072% | 1.363% | -8.157% | -12.48% |
| 23 | `O=C(NCc1nnc2n1CCC2)c1ccc(Br)s1` | 13.76% | 10.05% | 7.854% | 1.618% | 6.05% | -3.155% |
| 24 | `[H][C@]12CN(C(=O)c3cnc(C)nc3)CC[C@@]1(O)CCN(C(=O)N(C)C)C2` | - | - | - | - | 8.671% | - |
| 25 | `O=C(O)C(F)(F)F.O=C(O)C(F)(F)F.[H][C@@]12COC[C@]1(COCC1CC1)CN(Cc1cccnc1OC)C2` | - | - | - | - | -46.46% | - |
| 26 | `CC(C)NS(=O)(=O)c1cc(C(=O)O)cc(-c2ccc(CN(C)C)cc2)c1` | 1.149% | 4.237% | -0.2556% | -7.489% | -24.64% | -11.09% |
| 27 | `O=C1CCCc2nccc(-c3ccccc3)c21` | 12.19% | 0% | 2.9% | 3.01% | -4.643% | -17.44% |
| 28 | `Cc1cc(CN(Cc2ccccc2)C2CC2)on1` | -11.98% | 0% | 0.9544% | 0.8037% | -46.43% | -7.224% |
| 29 | `[H][C@@]12COC[C@@H](CC(=O)N3CCCO3)[C@]1([H])CN(S(C)(=O)=O)C2` | - | - | - | - | 11.36% | - |
| 30 | `N#CCCN(CCC#N)Cc1ccc(Br)c2cccnc12` | -6.802% | -15.46% | -0.5488% | -4.474% | 31% | -9.757% |
| 31 | `COCCN(C)C1COC2(CCN(Cc3cccc(F)c3)CC2)C1.O=C(O)C(F)(F)F.O=C(O)C(F)(F)F` (centres undefined) | - | - | - | - | 11.01% | - |
| 32 | `COCCNS(=O)(=O)c1cccc(CSC)c1` | 13.14% | -2.632% | 2.964% | -1.722% | -0.2971% | -16.54% |
| 33 | `CCOc1ccc(C#N)cc1NCC(=O)Nc1cc(C)no1` | 8.785% | -1.504% | 4.942% | 3.085% | 27.6% | -28.75% |
| 34 | `Cc1ccccc1C1CCN(CCNC(=O)CS(C)(=O)=O)C1` (centres undefined) | 2.696% | 11.45% | 5.692% | -5.732% | 16.86% | -39.92% |
| 35 | `Cc1ccc(N2CCN(C(=O)COc3ccccc3)CC2)nn1` | -3.959% | 9.091% | 2.446% | -5.33% | 18.65% | -2.447% |
| 36 | `c1cn(CCc2c[nH]cn2)c(-c2cc(CN3CCCC3)cs2)n1` | -14.25% | 3.571% | 6.121% | 6.618% | 1.233% | -40.24% |
| 37 | `CC(C)c1nnc2n1CCN(C(=O)CN(C)Cc1ccccc1)C2` | -30.19% | 3.468% | 0.1823% | 6.003% | 35.16% | -16.52% |
| 38 | `CC(C)N(Cc1ccccn1)Cc1nc2c(cnn2C)c(=O)[nH]1` | -43.16% | 5.572% | 0.7295% | -1.316% | 14.5% | -23.48% |
| 39 | `O=c1[nH]c(NCCO)nc2c1C1(CCCCC1)Cc1ccccc1-2` | -15.08% | 3.659% | 5.754% | 4.304% | 16.04% & 16.22% | -22.97% |
| 40 | `CC(C)n1c2ccccc2c2c1cc(C(=O)N(C)C)n2C(=O)N(C)C` | -51.86% | 4.233% | 3.663% | 0% | 35.02% | -0.7281% |
| 41 | `COc1c(C2CCCN2c2ncnc3sccc23)c(C)nn1C` (centres undefined) | -9.212% | 6.952% | 0.4861% | 3.478% | 26.6% | -17.27% |
| 42 | `O=C(NCCc1ccccn1)C1=NN(c2ccccc2)C(=O)CN1` | 7.233% | 0.7519% | 15.3% | 2.314% | -15.74% | -23.09% |
| 43 | `COc1ccccc1CC(NC(=O)N1CCOCC1)C(C)C` (centres undefined) | 2.21% | 8.824% | 3.172% | -2.871% | -3.417% | -9.998% |
| 44 | `COc1ccc(CNC(=O)N2CCCN(CC3CCCCC3)CC2)cn1` | -1.866% | 3.59% | 3.454% | -0.9938% | 14.66% | - |
| 45 | `CC(=O)c1ccc(N2CCN(C(=O)c3cnn4c3OCCC4)CC2)cc1` | -3.325% | 5.528% | -0.5931% | -1.805% | -4.498% | 18.15% |
| 46 | `COc1ccc(-c2noc([C@@H]3C[C@@H](O)CN3C3CCOCC3)n2)cc1` | -10.7% | 4.348% | -1.337% | 5.519% | 8.785% | 22.03% |
| 47 | `CC(CC(=O)N1CCCS1(=O)=O)c1ccccc1C(F)(F)F` (centres undefined) | -3.04% | 4.938% | 0.9659% | -1.474% | 22.35% | -8.057% |
| 48 | `COCCN(C/C=C/c1ccccc1)Cc1ccccn1` | -2.512% | 12.24% | 1.717% | 1.08% | 13.19% | -23.42% |
| 49 | `N#Cc1ccccc1CN1CCCC(c2nccn2CC2CC2)C1` (centres undefined) | 0.8374% | 5.882% | 3.278% | 0% | -8.86% | 24.11% |
| 50 | `Cc1cc(C)n(-c2ccccc2NC(=O)NCCCN(C)S(C)(=O)=O)n1` | 12.72% | 0.8772% | 0.5418% | 3.584% | -10.5% | -21.75% |
| 51 | `Cn1cnc(-c2nc(C(=O)NC3CC3)c3ccccn23)c1` | -127.6% | 8.247% | 6.776% | 1.97% | 6.929% | 112.5% |
| 52 | `CS(=O)(=O)CC(=O)N1C[C@H]2CCC[C@@]2(COc2ccccn2)C1` | 0.114% | -4.523% | -1.584% | -1.609% | - | -51.57% |
| 53 | `Cc1cccc(CNC(=O)CCc2c(C)nc3cc(O)nn3c2C)n1` | -11.52% | 2.299% | -0.0741% | 2.71% | 12.02% | -9.271% |

For reference, 5 entries once more:

O=C(NCCc1ccccn1)C1=NN(c2ccccc2)C(=O)CN1 read A: 7.233%; B: 0.7519%; C: 15.3%; D: 2.314%; E: -15.74%; F: -23.09%.
CS(=O)(=O)CC(=O)N1C[C@H]2CCC[C@@]2(COc2ccccn2)C1 read A: 0.114%; B: -4.523%; C: -1.584%; D: -1.609%; F: -51.57%.
COc1ccccc1CC(NC(=O)N1CCOCC1)C(C)C (centres undefined) read A: 2.21%; B: 8.824%; C: 3.172%; D: -2.871%; E: -3.417%; F: -9.998%.
Cc1cccc2c1nc1n2[C@@H](CNC(=O)c2ccncc2)COC1 read A: 1.693%; B: 4.348%; C: 5.801%; D: 8.609%; E: 7.857%; F: -27.69%.
Cc1ccc(N2CCN(C(=O)COc3ccccc3)CC2)nn1 read A: -3.959%; B: 9.091%; C: 2.446%; D: -5.33%; E: 18.65%; F: -2.447%.

Measurements from “University of Dundee, Small-Polar-MMV Screening Library” (2021), ChEMBL document CHEMBL3988442.